{"source": "PubChem BioAssay AID485314", "about": "(National Center for Advancing Translational Sciences (NCATS), 2010)", "note": "Out of some 340,000 compounds screened, about 4,500 (1.3%) were called active. This list was built around the results that the source calls inconclusive (neither active nor inactive); the mix of calls is not that of the screen. Calls follow the shape of the dose curve; as a rule, active = well fitted inhibition curve with a large enough effect; inconclusive = small, poorly fitted or top-dose-only effect, or another doubt; inactive = no such curve, though single readings can be large or run the other way. Potencies of inconclusive entries are doubtful fits and often do not repeat. % is scaled to controls: 0 for no effect and ±100 for the full control effect; potency is read from the fitted curve at half-maximal effect."}
{"molecular_target": "DNA polymerase beta (Homo sapiens) (UniProt P06746)", "experiment": "qHTS Assay for Inhibitors of DNA Polymerase Beta", "details": "Pol beta primer extension/strand displacement, fluorescence kinetic; activity change, negative = inhibition: at 114 µM (top of the series)", "summary_of_the_method": "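Curves were derived by four-parameter Hill fits of normalized qHTS data. The kinetic fluorescent primer-extension read was taken at 0 and 10 min after 50 nM substrate, following a 15 min room-temperature preincubation of 10 nM enzyme with compounds.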"}
{"smiles": "CC(=O)NS(=O)(=O)c1ccc(NC(=O)c2cc3c(=O)n4ccccc4nc3s2)cc1", "Potency": "active: 79.4 µM"}
{"smiles": "Cc1ccc(S(=O)(=O)NC(CC(=O)N2CCc3ccccc32)c2ccco2)cc1", "note": "(stereo not given)", "Potency": "inconclusive: 3.98 µM [inhibitor, full curve]"}
{"smiles": "O=C(NC1CCCCCCC1)c1c(O)c2ccccc2[nH]c1=O", "Potency": "inconclusive: 89.1 µM [inhibitor, single point]"}
{"smiles": "CCCC1O[C@@H]2C[C@H]3[C@@H]4CCC5=CC(=O)C=C[C@]5(C)C4[C@@H](O)C[C@]3(C)[C@]2(C(=O)CO)O1", "note": "(stereo not given in full)", "Potency": "inactive"}
{"smiles": "CCn1c(COc2ccc(OC)cc2)nnc1SCc1nc2ccccc2c(=O)[nH]1", "Potency": "inconclusive: 89.1 µM [inhibitor, single point]"}
{"smiles": "CC1CCN(S(=O)(=O)c2ccc(NC(=O)Cn3nnc(-c4ccccc4F)n3)cc2)CC1", "Potency": "active: 15.8 µM"}
{"smiles": "C/C(=N\\NC(=O)c1c(Cl)c(C)nn1C)c1cccc(NC(=O)c2cccc(F)c2)c1", "Potency": "inconclusive: 79.4 µM [inhibitor, single point]"}
{"smiles": "Cc1ccc(S(=O)(=O)Nc2ccc3c(c2)CCC3)cc1C", "Potency": "inconclusive: 0.891 µM [inhibitor, full curve]"}
{"smiles": "CCn1cc(/C=N/NC(=O)c2ccc(C#N)cc2F)c2ccccc21", "Potency": "inconclusive: 89.1 µM [inhibitor, single point]"}
{"smiles": "COc1ccc(OCC(=O)OCc2cc(=O)n3nc(-c4cccs4)sc3n2)cc1", "Potency": "inconclusive: 22.4 µM [inhibitor, full curve]"}
{"smiles": "COc1ccc(O)c(/C=N/NC(=O)c2ccc(OCc3cccc(Br)c3)cc2)c1", "Potency": "active: 15.8 µM"}
{"smiles": "NS(=O)(=O)c1cccc(NC(=O)C(Cc2ccccc2)NC(=O)c2ccccc2)c1", "note": "(stereo not given)", "Potency": "inactive"}
{"smiles": "O=c1oc2ccccc2n1Cc1cccc(F)c1", "Potency": "inconclusive: 0.141 µM [inhibitor, full curve, poor fit]"}
{"smiles": "Cc1nnc(SCc2ccc(Cl)cc2)nc1/C=C/N(C)C", "Potency": "inconclusive: 31.6 µM [inhibitor, single point]"}
{"smiles": "O=C(CCCN1C(=O)/C(=C/c2ccccc2Cl)SC1=S)NNC(=O)c1cccnc1", "Potency": "inconclusive: 0.224 µM [inhibitor, full curve, poor fit]"}
{"smiles": "Cc1cc(C)cc(NS(=O)(=O)c2ccc3[nH]cc(C(=O)NC4CCCCC4)c(=O)c3c2)c1", "Potency": "inconclusive: 56.2 µM [inhibitor, partial curve]"}
{"smiles": "O=C(O)CC(NC(=O)C12CC3CC(CC(C3)C1)C2)c1cc([N+](=O)[O-])ccc1Cl", "note": "(stereo not given)", "Potency": "inconclusive: 89.1 µM [inhibitor, single point]"}
{"smiles": "COC(=O)CSc1ccc(-c2nc3ccc(C)cc3[nH]2)cn1", "Potency": "inconclusive: 4.47 µM [inhibitor, full curve, poor fit]"}
{"smiles": "C/C(=N/NS(=O)(=O)c1ccccc1)c1ccc(NC(=O)C2CC2)cc1", "Potency": "inactive"}
{"smiles": "CC[C@@H](C)[C@H]1O[C@]2(CC[C@@H]1C)C[C@@H]1C[C@@H](C/C=C(\\C)[C@@H](O[C@H]3C[C@H](OC)[C@@H](O[C@H]4C[C@H](OC)[C@@H](O)[C@H](C)O4)[C@H](C)O3)[C@@H](C)/C=C/C=C3\\CO[C@@H]4[C@H](O)C(C)=C[C@@H](C(=O)O1)[C@]34O)O2", "Potency": "inconclusive: 15.8 µM [inhibitor, partial curve]"}
{"smiles": "Cc1cc(C)cc(NC(=O)CSc2oc(-c3ccccc3)nc2S(=O)(=O)c2ccccc2)c1", "Potency": "inconclusive: 10 µM [inhibitor, full curve]"}
{"smiles": "C=CCn1c(SCC(=O)c2ccc(CNC(C)=O)o2)nc2ccccc2c1=O", "Potency": "inconclusive: 20 µM [inhibitor, full curve, poor fit]"}
{"smiles": "CCCCOc1c(Br)cc(/C=C2\\N=C(C)OC2=O)cc1OCC", "Potency": "inconclusive: 1.12 µM [inhibitor, full curve, poor fit]"}
{"smiles": "Cc1ccc2c(c1)c(/C=C/c1cc[n+](C)cc1)c(C)n2C", "Potency": "inconclusive: 17.8 µM [inhibitor, full curve]"}
{"smiles": "O=c1c(-c2ccc(O)cc2O)coc2cc(O)cc(O)c12", "Potency": "active: 31.6 µM"}
{"smiles": "Nc1nc(C(=O)N2CCOCC2)nn1S(=O)(=O)c1ccc(Cl)cc1", "Potency": "inconclusive: 89.1 µM [inhibitor, single point]"}
{"smiles": "O=C(c1ccccc1)c1ccc2nc(-c3ccco3)c(-c3ccco3)nc2c1", "Potency": "active: 8.91 µM"}
{"smiles": "COc1ccc(-c2cc(C(F)(F)F)n3ncc(C(=O)NCc4ccco4)c3n2)cc1", "Potency": "inconclusive: 20 µM [inhibitor, full curve]"}
{"smiles": "O=C(O)C1Cc2ccccc2CN1C(=O)COc1ccc(Cl)cc1Cl", "note": "(stereo not given)", "Potency": "inconclusive: 12.6 µM [inhibitor, full curve, poor fit]"}
{"smiles": "Oc1ccc(/C=N/N2CCCCC2)cc1O", "Potency": "inconclusive: 70.8 µM [inhibitor, single point]"}
{"smiles": "O=C(Cc1cccc2ccccc12)Nc1cccnc1", "Potency": "inactive"}
{"smiles": "CN(C)C(CNc1nnnn1-c1ccccc1)c1ccco1", "note": "(stereo not given)", "Potency": "inconclusive: 44.7 µM [inhibitor, partial curve]"}
{"smiles": "CNC(=O)C1CCC(Cn2c(=O)c3sccc3n(CC(=O)NCc3ccc(OC)cc3)c2=O)CC1", "note": "(stereo not given)", "Potency": "inactive"}
{"smiles": "O=C(O)C1Nc2c(cccc2C(F)(F)F)C2C=CCC12", "note": "(stereo not given)", "activity change, negative = inhibition": "inconclusive: -81.4% [inhibitor]"}
{"smiles": "O=[N+]([O-])c1ccc(Oc2cc(NC3CCCCCCC3)c([N+](=O)[O-])cc2[N+](=O)[O-])cc1", "Potency": "inconclusive: 31.6 µM [inhibitor, partial curve, poor fit]"}
{"smiles": "C/C(=N/NC(=O)C(O)(c1ccccc1)c1ccccc1)c1ccc([N+](=O)[O-])o1", "Potency": "active: 12.6 µM"}
{"smiles": "Cc1cccc(NC(=O)Cn2cc(C(=O)c3ccco3)c3ccccc32)c1", "Potency": "inconclusive: 3.98 µM [inhibitor, partial curve]"}
{"smiles": "Cc1ccc(C2=NC(=O)/C(=C/c3cc(O)c(O)c(Br)c3)S2)cc1", "Potency": "active: 1.58 µM"}
{"smiles": "Cc1nc2cc(NC(=O)c3ccc([N+](=O)[O-])s3)ccc2s1", "Potency": "inconclusive: 50.1 µM [inhibitor, partial curve]"}
{"smiles": "CC(=O)c1cccc(NC(=O)COc2cc3oc(=O)c(CC(C)O)c(C)c3cc2Cl)c1", "note": "(stereo not given)", "Potency": "inconclusive: 20 µM [inhibitor, full curve]"}
